Residue numbers refer to the chain shown, from its start. No constants are given. Whether binding was seen depends on the method and setting. Some binding calls cover weakened binding; strength is not graded here. One block for each binder: values may come before it.
Key:
[1] = biological target: recombinant human GPC3 protein (human) (UniProt P51654); assay: ELISA on coated recombinant human GPC3 protein, OD450 [panel Recombinant human GPC3 protein]
[2] = biological target: recombinant human GPC3 protein (human) (UniProt P51654); assay: BLI (Octet)
[3] = biological target: recombinant cynomolgus monkey GPC3 full-length protein (cynomolgus monkey); assay: ELISA on coated recombinant cynomolgus monkey GPC3 protein, OD450 [panel Recombinant cynomolgus monkey GPC3 protein]
[4] = biological target: recombinant cynomolgus monkey GPC3 full-length protein (cynomolgus monkey); assay: SPR (Biacore T200)
[5] = biological target: recombinant mouse GPC3 full-length protein (mouse) (UniProt Q8CFZ4); assay: ELISA, coated antigen 1 µg/ml
[6] = biological target: recombinant cynomolgus monkey GPC3 full-length protein (cynomolgus monkey); assay: ELISA
[7] = biological target: recombinant mouse GPC3 full-length protein (mouse) (UniProt Q8CFZ4); assay: ELISA
[8] = biological target: recombinant mouse GPC3 full-length protein (mouse) (UniProt Q8CFZ4); assay: ELISA on coated recombinant mouse GPC3 protein, OD450 [panel Mouse recombinant GPC3 protein]

The chains behind the UniProt entries cited, without tags or fusion partners. Where a name states a change or a piece, a line headed by the entry shows the natural chain unless it says otherwise.
UniProt P51654: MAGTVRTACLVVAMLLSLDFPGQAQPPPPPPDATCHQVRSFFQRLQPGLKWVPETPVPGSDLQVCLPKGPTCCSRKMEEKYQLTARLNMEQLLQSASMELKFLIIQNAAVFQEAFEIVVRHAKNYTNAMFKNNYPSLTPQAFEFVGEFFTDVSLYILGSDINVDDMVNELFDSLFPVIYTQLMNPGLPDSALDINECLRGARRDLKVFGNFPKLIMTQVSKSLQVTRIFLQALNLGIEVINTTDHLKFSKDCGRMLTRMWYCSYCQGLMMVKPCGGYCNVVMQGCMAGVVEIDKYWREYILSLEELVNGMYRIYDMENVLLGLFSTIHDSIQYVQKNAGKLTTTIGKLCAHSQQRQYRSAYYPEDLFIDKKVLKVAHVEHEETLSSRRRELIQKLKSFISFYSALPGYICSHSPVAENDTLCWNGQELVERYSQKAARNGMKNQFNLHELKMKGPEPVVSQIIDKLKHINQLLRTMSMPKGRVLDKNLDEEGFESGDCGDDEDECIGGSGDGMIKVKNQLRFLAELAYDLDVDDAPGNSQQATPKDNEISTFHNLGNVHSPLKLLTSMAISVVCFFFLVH
UniProt Q8CFZ4: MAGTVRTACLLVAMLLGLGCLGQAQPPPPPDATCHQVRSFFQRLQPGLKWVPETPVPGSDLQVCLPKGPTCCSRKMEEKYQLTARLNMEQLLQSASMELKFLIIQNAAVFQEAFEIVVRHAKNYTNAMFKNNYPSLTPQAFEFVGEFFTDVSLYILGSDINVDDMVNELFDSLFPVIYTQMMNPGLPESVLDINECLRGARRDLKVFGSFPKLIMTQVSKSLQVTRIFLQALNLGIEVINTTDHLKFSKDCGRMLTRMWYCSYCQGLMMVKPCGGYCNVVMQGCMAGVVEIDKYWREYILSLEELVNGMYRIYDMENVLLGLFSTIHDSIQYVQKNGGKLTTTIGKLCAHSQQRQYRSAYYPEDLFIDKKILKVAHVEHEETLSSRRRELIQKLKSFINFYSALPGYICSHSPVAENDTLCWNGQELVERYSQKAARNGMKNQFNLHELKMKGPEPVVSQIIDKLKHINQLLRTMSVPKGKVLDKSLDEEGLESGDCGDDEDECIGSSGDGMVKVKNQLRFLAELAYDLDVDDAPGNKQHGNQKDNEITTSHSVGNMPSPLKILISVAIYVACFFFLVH

binding [1]: binds | binding [2]: binds | binding [3]: binds
B1: h49G8VHv6VKv2 (antibody, V domains shown)
VH: QVQLVQSGAEVKKPGSSVKVSCKASGYTFADYEIHWVRQAPGQGLEWMGAIHPGSGGTAYAQKFQGRVTLTADESSTTAYMELSSLRSEDTAVYYCTRYYSFAYWGQGTLVTVSS
VL: DVVMTQSPLSLPVTPGEPASISCRSSQSIVHSNYNTYLEWYLQKPGQSPQLLIYKVSNRFSGVPDRFSGSGSGTDFTLKISRVEAEDVGVYFCLQVTHVPLTFGQGTKLEIK

binding [3]: binds
B2: h49G8VHv6VKv6 (antibody, V domains shown)
VH: B1 VH
VL: B1 VL with Y34A

binding [3]: binds
B3: h49G8VHv6VKv5 (antibody, V domains shown)
VH: B1 VH
VL: B1 VL with Y34T

binding [3]: binds
B4: h49G8VHv6VKv4 (antibody, V domains shown)
VH: B1 VH
VL: B1 VL with Y34S

binding [4]: binds | binding [3]: binds
B5: h49G8VHv6VKv3 (antibody, V domains shown)
VH: B1 VH
VL: B1 VL with Y34G

binding [5]: binds | binding [6]: binds | binding [7]: binds | binding [3]: binds | binding [8]: binds
B6: 49G8 (antibody, V domains shown)
VH: QVQLQQSGAELVRPGASVKLSCKALGYTFADYEIHWVKQTPVHGLEWIGAIHPGSGGTAYNQTFEGKATLTADKSSTTAYMELSSLTSEDSAVYYCTRYYSFAYWGQGTLVTVSA
VL: B1 VL with S7T, T14S, P15L, E17D, P18Q, Y34G, Q50K, V88L, Q105A, I111L
